Values of other authors in patent US20190000850A1, “COMBINATION CANCER THERAPY” (The Regents of the University of California, priority 2015, published 2019).

Molecular target: T1, Chk1 (Homo sapiens, UniProt O14757)
T1 sequence (O14757 1-476): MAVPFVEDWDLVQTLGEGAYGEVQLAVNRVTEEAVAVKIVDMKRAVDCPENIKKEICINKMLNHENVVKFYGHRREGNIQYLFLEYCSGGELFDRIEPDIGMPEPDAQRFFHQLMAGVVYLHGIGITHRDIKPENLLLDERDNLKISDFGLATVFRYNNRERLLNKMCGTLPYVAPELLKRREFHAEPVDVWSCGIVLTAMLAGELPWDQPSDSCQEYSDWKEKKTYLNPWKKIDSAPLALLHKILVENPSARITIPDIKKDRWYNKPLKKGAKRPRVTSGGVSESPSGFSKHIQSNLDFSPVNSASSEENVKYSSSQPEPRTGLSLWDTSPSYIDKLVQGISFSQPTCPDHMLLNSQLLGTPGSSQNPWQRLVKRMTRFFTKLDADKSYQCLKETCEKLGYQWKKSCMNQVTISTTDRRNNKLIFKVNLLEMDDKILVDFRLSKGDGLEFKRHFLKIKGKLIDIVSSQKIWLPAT
Settings: read-out: IC50 against primary target (Chk1); cited from earlier work

SMILES: CNCCCn1c2ccc(O)cc2c2c3c(c(-c4c(Cl)cccc4Cl)cc21)C(=O)NC3=O [PD-321852]
- IC50: 5 nM
